Article PMC10432679
Read-outs that look alike come from different tables or passages of the source. These are yes or no findings as the source states them, for the method shown. Binding seen in cells or lysates may run through a third protein. A yes stands for co-enrichment or nearness to the bait. Other partners may have been found. Blank lines part the entries; values can stand above or below the molecule they belong to.

Amino acid sequences for entries named in this document (tags omitted). A change or cut given only in a name is not applied to a line headed by its entry.
UniProt Q57W41: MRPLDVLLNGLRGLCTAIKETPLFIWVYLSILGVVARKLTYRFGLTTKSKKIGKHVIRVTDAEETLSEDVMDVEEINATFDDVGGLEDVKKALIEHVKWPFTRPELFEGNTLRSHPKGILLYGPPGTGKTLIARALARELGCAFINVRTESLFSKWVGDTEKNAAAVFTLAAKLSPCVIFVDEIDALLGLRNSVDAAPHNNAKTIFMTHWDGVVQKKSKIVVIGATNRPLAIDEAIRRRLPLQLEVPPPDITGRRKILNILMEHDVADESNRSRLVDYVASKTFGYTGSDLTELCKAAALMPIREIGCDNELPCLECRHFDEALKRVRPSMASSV
UniProt Q580J2: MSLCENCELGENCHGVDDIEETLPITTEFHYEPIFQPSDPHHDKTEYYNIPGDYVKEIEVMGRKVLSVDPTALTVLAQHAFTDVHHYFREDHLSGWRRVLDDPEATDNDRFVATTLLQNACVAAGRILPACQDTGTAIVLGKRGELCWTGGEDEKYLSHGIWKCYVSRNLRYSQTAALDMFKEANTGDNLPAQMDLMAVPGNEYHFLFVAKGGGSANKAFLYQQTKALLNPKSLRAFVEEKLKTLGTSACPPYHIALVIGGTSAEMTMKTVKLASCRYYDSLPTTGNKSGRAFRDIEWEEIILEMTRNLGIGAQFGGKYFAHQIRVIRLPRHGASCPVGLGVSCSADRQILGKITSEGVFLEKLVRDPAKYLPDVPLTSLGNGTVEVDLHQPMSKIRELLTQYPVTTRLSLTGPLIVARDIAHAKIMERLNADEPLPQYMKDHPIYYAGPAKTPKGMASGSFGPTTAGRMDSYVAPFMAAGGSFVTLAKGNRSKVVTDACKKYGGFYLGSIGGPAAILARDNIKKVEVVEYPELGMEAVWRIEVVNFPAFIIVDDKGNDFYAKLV
UniProt Q386J8: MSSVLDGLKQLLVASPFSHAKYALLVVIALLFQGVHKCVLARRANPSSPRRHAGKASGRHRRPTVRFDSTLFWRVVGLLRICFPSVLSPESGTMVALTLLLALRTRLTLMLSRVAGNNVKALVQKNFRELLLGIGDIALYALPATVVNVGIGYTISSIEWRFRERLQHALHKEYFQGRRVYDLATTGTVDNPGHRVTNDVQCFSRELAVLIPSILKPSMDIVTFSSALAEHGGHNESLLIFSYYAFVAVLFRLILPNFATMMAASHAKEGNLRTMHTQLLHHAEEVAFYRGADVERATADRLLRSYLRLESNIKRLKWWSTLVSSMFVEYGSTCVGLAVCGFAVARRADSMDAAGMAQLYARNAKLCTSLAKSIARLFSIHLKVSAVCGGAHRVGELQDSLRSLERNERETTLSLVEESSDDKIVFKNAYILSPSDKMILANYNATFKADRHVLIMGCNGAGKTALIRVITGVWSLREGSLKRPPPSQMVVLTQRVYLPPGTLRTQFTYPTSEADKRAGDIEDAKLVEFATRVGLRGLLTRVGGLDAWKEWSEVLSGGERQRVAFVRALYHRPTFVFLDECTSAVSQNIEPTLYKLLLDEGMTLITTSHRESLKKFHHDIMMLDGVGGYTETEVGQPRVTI
UniProt Q383C6: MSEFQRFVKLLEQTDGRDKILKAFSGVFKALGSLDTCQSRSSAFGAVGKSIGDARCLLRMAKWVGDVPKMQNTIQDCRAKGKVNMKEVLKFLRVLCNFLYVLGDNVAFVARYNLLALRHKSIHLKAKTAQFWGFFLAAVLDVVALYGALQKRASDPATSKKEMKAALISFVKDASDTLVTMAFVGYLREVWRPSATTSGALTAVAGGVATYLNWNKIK
UniProt Q38CI9: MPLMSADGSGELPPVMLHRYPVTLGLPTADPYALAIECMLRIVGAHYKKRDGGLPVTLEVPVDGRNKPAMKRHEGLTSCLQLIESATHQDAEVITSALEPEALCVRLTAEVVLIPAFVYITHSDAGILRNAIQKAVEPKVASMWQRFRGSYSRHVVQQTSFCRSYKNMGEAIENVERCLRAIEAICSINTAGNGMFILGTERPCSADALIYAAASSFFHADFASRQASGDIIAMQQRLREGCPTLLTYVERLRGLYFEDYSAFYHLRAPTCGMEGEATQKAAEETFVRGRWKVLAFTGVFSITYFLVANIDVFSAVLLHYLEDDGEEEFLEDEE
UniProt Q57VU5: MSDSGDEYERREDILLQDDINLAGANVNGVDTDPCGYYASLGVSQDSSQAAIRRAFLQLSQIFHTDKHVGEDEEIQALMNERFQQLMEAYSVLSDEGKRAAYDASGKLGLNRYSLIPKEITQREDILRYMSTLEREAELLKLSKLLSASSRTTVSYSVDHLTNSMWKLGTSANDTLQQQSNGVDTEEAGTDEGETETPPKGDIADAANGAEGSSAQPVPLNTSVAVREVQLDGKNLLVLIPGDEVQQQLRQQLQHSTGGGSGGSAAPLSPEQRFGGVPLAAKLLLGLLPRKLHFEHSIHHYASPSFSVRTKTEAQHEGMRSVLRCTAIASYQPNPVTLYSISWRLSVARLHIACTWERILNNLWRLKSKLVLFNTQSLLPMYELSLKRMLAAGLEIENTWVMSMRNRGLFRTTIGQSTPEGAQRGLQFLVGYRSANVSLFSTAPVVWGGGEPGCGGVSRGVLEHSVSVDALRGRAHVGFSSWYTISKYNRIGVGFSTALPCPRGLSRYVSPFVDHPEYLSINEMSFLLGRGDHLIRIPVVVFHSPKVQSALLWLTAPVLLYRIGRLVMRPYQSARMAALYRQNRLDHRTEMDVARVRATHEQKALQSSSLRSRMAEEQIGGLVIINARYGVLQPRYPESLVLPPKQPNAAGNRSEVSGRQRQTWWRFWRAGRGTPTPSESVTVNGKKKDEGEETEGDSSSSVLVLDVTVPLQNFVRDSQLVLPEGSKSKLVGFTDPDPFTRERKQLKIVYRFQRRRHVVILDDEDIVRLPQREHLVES
UniProt Q57ZC7: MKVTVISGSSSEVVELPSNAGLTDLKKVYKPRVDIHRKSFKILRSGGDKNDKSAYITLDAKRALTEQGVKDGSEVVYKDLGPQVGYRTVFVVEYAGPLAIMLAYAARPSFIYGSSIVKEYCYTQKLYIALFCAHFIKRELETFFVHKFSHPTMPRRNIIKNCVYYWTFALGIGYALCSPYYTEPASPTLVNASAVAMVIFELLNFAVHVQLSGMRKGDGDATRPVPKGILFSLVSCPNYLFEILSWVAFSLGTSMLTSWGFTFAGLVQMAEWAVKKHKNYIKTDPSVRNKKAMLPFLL
UniProt Q57Y09: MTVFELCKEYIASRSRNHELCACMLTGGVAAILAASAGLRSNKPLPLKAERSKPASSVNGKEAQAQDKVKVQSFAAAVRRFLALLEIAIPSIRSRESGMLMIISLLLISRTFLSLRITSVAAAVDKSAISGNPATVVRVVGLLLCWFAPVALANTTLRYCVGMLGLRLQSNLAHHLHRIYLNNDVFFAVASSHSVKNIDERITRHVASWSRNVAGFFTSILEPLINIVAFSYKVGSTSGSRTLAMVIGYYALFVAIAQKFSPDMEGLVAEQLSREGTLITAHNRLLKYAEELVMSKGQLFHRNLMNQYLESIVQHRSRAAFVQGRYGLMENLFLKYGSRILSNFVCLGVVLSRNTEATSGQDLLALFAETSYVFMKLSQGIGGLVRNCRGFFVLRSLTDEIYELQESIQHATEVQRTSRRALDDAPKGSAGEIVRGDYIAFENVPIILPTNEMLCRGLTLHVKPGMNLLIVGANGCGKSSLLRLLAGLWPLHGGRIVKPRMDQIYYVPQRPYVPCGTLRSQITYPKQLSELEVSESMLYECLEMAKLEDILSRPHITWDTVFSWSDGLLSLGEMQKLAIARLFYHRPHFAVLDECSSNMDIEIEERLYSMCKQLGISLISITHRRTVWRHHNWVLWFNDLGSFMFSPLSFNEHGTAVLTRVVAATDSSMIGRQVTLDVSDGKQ
UniProt Q585W6: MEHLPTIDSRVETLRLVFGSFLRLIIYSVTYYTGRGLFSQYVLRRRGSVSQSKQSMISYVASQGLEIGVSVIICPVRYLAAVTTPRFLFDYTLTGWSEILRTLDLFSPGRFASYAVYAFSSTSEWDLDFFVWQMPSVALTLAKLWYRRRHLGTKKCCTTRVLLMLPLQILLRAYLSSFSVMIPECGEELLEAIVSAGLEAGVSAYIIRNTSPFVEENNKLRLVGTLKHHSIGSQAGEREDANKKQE

Columns and labels:
[1] = biological target: in situ C-terminally HA-tagged TbMsp1 (T. brucei) (UniProt Q57W41); assay: affinity purification with mass spectrometry; SILAC immunoprecipitation with anti-HA affinity matrix from digitonin-extracted crude mitochondrial fractions solubilised in 1% digitonin, 20 mM Tris-HCl pH 7.4, 100 mM NaCl, 25 mM KCl, 4°C; mixed 29.13 parent cells and cells with in situ tagged TbMsp1-HA; n = 3; done in the presence of pATOM36 and in pATOM36 RNAi-depleted cells
[2] = biological target: in situ C-terminally HA-tagged TbMsp1 (T. brucei) (UniProt Q57W41); assay: as above; remark: listed apart in the source

binding [1]: binds
Molecule: cytosolic fumarate hydratase (Tb927.3.4500) (from UniProt Q580J2)

binding [1]: binds
Molecule: glycosomal metabolite transporter GAT2 (from UniProt Q386J8)

binding [1]: binds
Molecule: peroxisome biogenesis protein Pex11 (from UniProt Q383C6)

The remaining lines, values behind:

Molecule: POMP19, endogenous (from UniProt Q38CI9)
binding [1]: binds

Molecule: TbJ31, endogenous (from UniProt Q57VU5)
binding [1]: binds

Molecule: TbTsc13, endogenous (from UniProt Q57ZC7)
binding [1]: binds

Molecule: glycosomal metabolite transporter GAT1 (from UniProt Q57Y09)
binding [1]: binds

Molecule: protein of the mitochondrial OM proteome 31 (POMP31), endogenous (from UniProt Q585W6)
binding [1]: binds

B1: phosphoglycerate kinase A (protein, UniProt P08891 1-505)
chain: MSTAPNAKNNISLKKSVGDVWPLTAKRVLMRVDFNVPMQNGHITNDYRIRAAIPTIRRVIDQGGICILLSHLGRPRGVSMVAGVRDIRRRYHEAQFHDNKGKTAFFSVLPGEEKVKILAKSSAREEATHISPEVKSGKTMLFARLPEDEKKSLLMQYLNENKDSALPQMSVSAGYEEQYSLRPVAVRLAELLGQHVYFAHDCLDARVEVSRLKRGNVMLLENVRFYSEENGENAEEREAMAKILASYGDVYISDAFGAAHRDSATMTGIPKILGHGAAGYLMEKEISYFAKVLGNPPRPLEAIVGGAKVSEKIQLLDNMKQRIDYLLIGGAMAYTFLKAQGYSIGKSKCEESKLEFARSLLKKAEDRKVQVILPIDHVCHTEFKAVDSPLITEDQNIPEGHMALDIGPKTIEKYVQTIGKCKSAIWNGPMGVFEMVPYSKGTFAIAKAMGRGTQKRGLMSIIGGGESAGAAEAARISHVSTGGGASLELLEGKTLPGVAVLDDKE
binding [2]: binds
